Data: PMC2933246
These are yes or no findings as the source states them, for the method shown. Binding seen in cells or lysates may run through a third protein. These calls come from enrichment with a bait or labelling near it, and not all partners need be listed.

Chains of the proteins cited; added tags and fusions are not shown. Lines headed by an entry give the natural chain unless they say otherwise; changes in a name come on top.
UniProt P17255: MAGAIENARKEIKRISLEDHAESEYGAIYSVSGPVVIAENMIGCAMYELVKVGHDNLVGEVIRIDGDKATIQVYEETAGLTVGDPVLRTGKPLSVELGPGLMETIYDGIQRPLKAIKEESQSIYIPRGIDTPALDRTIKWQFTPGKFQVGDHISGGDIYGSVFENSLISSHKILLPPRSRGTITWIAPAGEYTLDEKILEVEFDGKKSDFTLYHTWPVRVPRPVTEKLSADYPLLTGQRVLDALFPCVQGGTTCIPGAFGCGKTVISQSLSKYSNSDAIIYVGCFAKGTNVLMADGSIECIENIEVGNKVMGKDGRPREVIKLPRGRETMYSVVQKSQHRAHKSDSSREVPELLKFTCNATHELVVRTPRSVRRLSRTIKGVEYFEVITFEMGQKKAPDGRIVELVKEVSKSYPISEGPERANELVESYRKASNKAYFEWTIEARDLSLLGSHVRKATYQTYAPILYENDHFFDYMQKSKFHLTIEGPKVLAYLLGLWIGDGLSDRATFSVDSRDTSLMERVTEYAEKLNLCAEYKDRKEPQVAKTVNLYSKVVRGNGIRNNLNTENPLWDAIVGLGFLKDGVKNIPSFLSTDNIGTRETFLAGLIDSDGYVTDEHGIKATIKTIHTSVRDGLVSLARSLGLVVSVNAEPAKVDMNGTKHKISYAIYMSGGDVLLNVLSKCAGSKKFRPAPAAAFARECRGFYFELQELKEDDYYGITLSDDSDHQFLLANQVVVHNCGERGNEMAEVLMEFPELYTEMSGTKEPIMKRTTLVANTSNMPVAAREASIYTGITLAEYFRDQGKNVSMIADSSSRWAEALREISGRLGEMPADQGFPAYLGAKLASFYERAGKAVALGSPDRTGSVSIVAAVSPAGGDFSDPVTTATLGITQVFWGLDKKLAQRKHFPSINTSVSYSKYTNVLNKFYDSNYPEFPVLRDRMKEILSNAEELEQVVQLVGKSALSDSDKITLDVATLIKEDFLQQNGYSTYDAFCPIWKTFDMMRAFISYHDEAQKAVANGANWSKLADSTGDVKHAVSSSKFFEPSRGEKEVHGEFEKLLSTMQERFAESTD
UniProt P32610: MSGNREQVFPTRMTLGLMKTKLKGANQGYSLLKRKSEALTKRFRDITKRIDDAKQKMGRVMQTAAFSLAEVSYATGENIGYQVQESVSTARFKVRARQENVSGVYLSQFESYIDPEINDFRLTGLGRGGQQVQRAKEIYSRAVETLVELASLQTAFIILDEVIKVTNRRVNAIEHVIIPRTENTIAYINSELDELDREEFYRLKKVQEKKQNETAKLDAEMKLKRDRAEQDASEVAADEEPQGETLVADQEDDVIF
UniProt P22203: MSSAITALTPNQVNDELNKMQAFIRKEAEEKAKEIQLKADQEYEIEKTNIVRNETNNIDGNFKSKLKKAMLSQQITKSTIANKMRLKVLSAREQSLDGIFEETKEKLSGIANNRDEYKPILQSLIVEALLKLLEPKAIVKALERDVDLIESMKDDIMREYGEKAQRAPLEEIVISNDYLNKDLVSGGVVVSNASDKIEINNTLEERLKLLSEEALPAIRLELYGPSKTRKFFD
UniProt P39111: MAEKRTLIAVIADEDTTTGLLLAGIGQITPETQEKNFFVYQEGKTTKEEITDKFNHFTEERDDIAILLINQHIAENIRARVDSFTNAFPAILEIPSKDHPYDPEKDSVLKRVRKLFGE
UniProt P48836: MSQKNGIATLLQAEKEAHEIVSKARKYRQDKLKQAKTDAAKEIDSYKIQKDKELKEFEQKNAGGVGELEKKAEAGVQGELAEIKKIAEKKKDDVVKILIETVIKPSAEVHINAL

target: V-ATPase subunit A with carboxy-terminal 3xFLAG (Saccharomyces cerevisiae) (UniProt P17255); assay: affinity purification with mass spectrometry; anti-FLAG agarose on lysate of yeast with 3xFLAG on subunit A, no detergent, 100 mM NaCl; eluted with 3xFLAG peptide, 5 mM ATP, 5 mM EDTA; then Superose 6; subunits identified by SDS-PAGE and MALDI-TOF

Row | Molecule | binding
1 | V-ATPase subunit D (from UniProt P32610 1-256) | binds
2 | V-ATPase subunit H (protein, UniProt P41807 1-478) MGATKILMDSTHFNEIRSIIRSRSVAWDALARSEELSEIDASTAKALESILVKKNIGDGLSSSNNAHSGFKVNGKTLIPLIHLLSTSDNEDCKKSVQNLIAELLSSDKYGDDTVKFFQEDPKQLEQLFDVSLKGDFQTVLISGFNVVSLLVQNGLHNVKLVEKLLKNNNLINILQNIEQMDTCYVCIRLLQELAVIPEYRDVIWLHEKKFMPTLFKILQRATDSQLATRIVATNSNHLGIQLQYHSLLLIWLLTFNPVFANELVQKYLSDFLDLLKLVKITIKEKVSRLCISIILQCCSTRVKQHKKVIKQLLLLGNALPTVQSLSERKYSDEELRQDISNLKEILENEYQELTSFDEYVAELDSKLLCWSPPHVDNGFWSDNIDEFKKDNYKIFRQLIELLQAKVRNGDVNAKQEKIIIQVALNDITHVVELLPESIDVLDKTGGKADIMELLNHSDSRVKYEALKATQAIIGYTFK | binds

Second part, the molecule after the results:

Row | binding | Molecule
3 | binds | V-ATPase subunit E (from UniProt P22203 1-233)
4 | binds | V-ATPase subunit F (from UniProt P39111 1-118)
5 | binds | V-ATPase subunit G (from UniProt P48836 1-114)
